# About 22,000 (6.9%) of roughly 320,000 compounds were called active. This list was built around the results that the source calls inconclusive (neither active nor inactive); the mix of calls is not that of the screen. The call rests on the fitted dose curve; in most records, active means well fitted inhibition curve with a large enough effect; inconclusive means small, poorly fitted or top-dose-only effect, or another doubt; inactive means no such curve, though single readings can be large or run the other way. Where the call is inconclusive, the potency comes from a doubtful curve fit.
# Experiment: Primary qHTS for delayed death inhibitors of the malarial parasite plastid, 96 hour incubation
# Conditions: P. falciparum luciferase reporter growth; series mostly up to 28.7 µM; activity change, negative = inhibition: at the top concentration
# In short: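 Compounds incubated with erythrocytes infected by luciferase-expressing P. falciparum (2% hematocrit, 0.05% parasitemia final) for 96 hours, 37 C in 5% CO2. Growth inhibition scored as decreased luciferase luminescence.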
# On the % scale 0 is the no-effect control and ±100 the full control effect; potency means the concentration at half of the fitted maximal effect.
Structure (SMILES),Potency,"activity change, negative = inhibition"
Cc1cccc(OCC(=O)Nc2cc(S(=O)(=O)N3CCCCC3)ccc2N2CCN(C)CC2)c1,"inconclusive: 5.22 µM [inhibitor, partial curve]",–
CCC(=O)Nc1nc2ccc3sc(C)nc3c2s1,–,inactive: -5.95%
CCOc1ccc(CCNC(=O)C2CCCN(c3nn4c(=O)cc(C)nc4s3)C2)cc1OCC (configuration not stated),active: 0.147 µM,–
C/C(=N\N=c1/sc2ccccc2n1C)c1ccc(N2CCOCC2)cc1,–,inactive: 43.3%
CCOC(=O)Cc1csc(NC(=S)NC(=O)c2ccc([N+](=O)[O-])cc2)n1,–,inactive: 72.5%
O=C1NC(=O)N(Cc2ccccc2)C(=O)/C1=C\C=C\c1ccco1,"inconclusive: 4.65 µM [inhibitor, partial curve, poor fit]",–
COc1cccc(CNn2c(-c3cccc(C)c3)nc3ccccc3c2=O)c1,active: 9.28 µM,–
CCOC(=O)N1CCN(C(=O)Cc2ccc(-n3c(=O)[nH]c4ccccc4c3=O)cc2)CC1,active: 9.28 µM,–
COc1ccc(CN2CCN(C(=O)c3ccc(F)cc3)CC2)c(OC)c1,"inconclusive: 18.5 µM [inhibitor, single point]",–
Cc1cccc(Oc2ccc(S(=O)(=O)N3CCCCC3)cc2NC(=O)C2=COCCO2)c1,"inconclusive: 10.4 µM [inhibitor, single point]",–
O=C(Cn1cc(S(=O)(=O)Cc2cccc(F)c2)c2ccccc21)N1CCOCC1,–,inactive: -16.6%
COc1ccc2cc(C(=O)C3CCCN(C(=O)c4cccnc4)C3)ccc2c1 (configuration not stated),active: 11.7 µM,–
COc1ccccc1Nc1nc2nonc2[nH]c1=O,–,inactive: -32.7%
Cc1nn(C)cc1C1C(C#N)=C(N)N(c2ccc(F)c([N+](=O)[O-])c2)C2=C1C(=O)CCC2 (configuration not stated),active: 9.28 µM,–
O=C(O)CN1C(=O)/C(=C\c2cccc(OCc3ccc(Cl)cc3Cl)c2)SC1=S,"inconclusive: 10.4 µM [inhibitor, single point]",–
O=C(NNC(=O)C1CCC1)c1cccc(Cl)c1,–,inactive: -13%
O=C(c1ccccc1)N1CCC(c2nc3c(nnn3Cc3ccccc3Cl)c(=O)[nH]2)CC1,active: 8.28 µM,–
CC(C)(C)OC(=O)N1CCC(c2c(C(=O)NCC3CCN(C4CCCC4)C3)cnn2-c2ccc(F)cc2)CC1 (configuration not stated),–,inactive: -10.2%
Cc1cc(/C=C2\SC(=Nc3ccccc3)NC2=O)c(C)n1-c1ccc(S(N)(=O)=O)cc1,"inconclusive: 0.208 µM [inhibitor, full curve, poor fit]",–
COc1ccc(OC2C(=O)N(CCc3ccc(OC)c(OC)c3)C2c2ccc3c(c2)OCO3)cc1 (configuration not stated),"inconclusive: 18.5 µM [inhibitor, single point]",–
CN1CCN(CCCCOc2cccc3ccccc23)CC1,"inconclusive: 16.5 µM [inhibitor, single point]",–
Cc1ccc(-c2csc(NC(=O)Cc3cccs3)n2)cc1C,"inconclusive: 0.522 µM [inhibitor, full curve, poor fit]",–
Nc1nc(Nc2cccc(F)c2)nc(NCc2ccco2)c1[N+](=O)[O-],"inconclusive: 11.7 µM [inhibitor, single point]",–
COc1cc(NC2c3ccccc3C(=O)N2Cc2ccc3c(c2)OCO3)cc(OC)c1OC (configuration not stated),"inconclusive: 14.7 µM [inhibitor, single point]",–

# Complete entries as entered above:
# CCOC(=O)Cc1csc(NC(=S)NC(=O)c2ccc([N+](=O)[O-])cc2)n1 in the list: activity change, negative = inhibition: inactive: 72.5%
# O=C(c1ccccc1)N1CCC(c2nc3c(nnn3Cc3ccccc3Cl)c(=O)[nH]2)CC1 in the list: Potency: active: 8.28 µM
# O=C(NNC(=O)C1CCC1)c1cccc(Cl)c1 in the list: activity change, negative = inhibition: inactive: -13%

# The list continues.

Structure (SMILES),Potency,"activity change, negative = inhibition"
CC(=O)c1ccc(N=C2SCCCN2C(=O)C2CCCC2)cc1,–,inactive: -12.7%
COCCN(C)Cc1cn(-c2ccc(F)cc2F)nc1-c1ccccc1C,–,inactive: 39.8%
Cc1cc(C)cc(NC(=O)NCc2ccccn2)c1,"inconclusive: 18.5 µM [inhibitor, single point]",–
CCn1c(SCC(=O)c2cc(OC)ccc2OC)nnc1C1CC1,"inconclusive: 0.828 µM [inhibitor, full curve]",–
COCCN(C(=S)Nc1ccc(OC)cc1)C1CCN(C(C)C)CC1,active: 11.7 µM,–
Cc1nc2nc(C)c(NS(=O)(=O)c3ccc4c(c3)CCCC4)c(=O)n2[nH]1,–,inactive: 30.7%
Cc1cccc2sc(N(CCCN(C)C)C(=O)c3sc4ccccc4c3Cl)nc12,"inconclusive: 16.5 µM [inhibitor, single point]",–
Cc1cc(=O)[nH]c2ccc(S(=O)(=O)NCc3ccccc3)cc12,–,inactive: 18.8%
CCOc1ccc(-c2nnc(-c3ccccc3)n2-c2ccccc2)cc1,"inconclusive: 0.0828 µM [inhibitor, full curve, poor fit]",–
CCOC(=O)C(C(C)=O)c1nc(C)nc2c1nnn2Cc1ccccc1Cl (configuration not stated),"inconclusive: 18.5 µM [inhibitor, single point]",–
FC(F)(F)c1cnc(NNC(=S)Nc2cccnc2)c(Cl)c1,"inconclusive: 10.4 µM [inhibitor, single point]",–
CC(C)OC(=O)c1ccc(N)cc1,–,inactive: 36.6%
COc1ccc(N2CC(C(=O)N3CCN(c4ccccc4OC)CC3)CC2=O)cc1 (configuration not stated),–,inactive: -11.9%
CSCCC(C(=O)OCC(=O)c1ccc(C)c(C)c1)N1C(=O)c2ccccc2C1=O (configuration not stated),–,inactive: 2.51%
COCCCNc1c2c(nc3nnnn13)CCCC2,"inconclusive: 1.85 µM [inhibitor, single point]",–
Cc1ccc(NCc2ccc([N+](=O)[O-])s2)cc1,"inconclusive: 11.7 µM [inhibitor, single point]",–
CC(CCC(=O)O)C1CC[C@H]2C3CCC4CC(=O)CCC4(C)[C@H]3CC(=O)C12C (some centres not stated),"inconclusive: 18.5 µM [inhibitor, single point]",–
CN(C)c1ccc(N=Cc2nc(-c3ccccc3)oc2OC(=O)c2cccc(Br)c2)cc1,–,inactive: 385%
CN(C)S(=O)(=O)c1ccc(N2CCCC2)c(C(=O)Nc2ccccc2F)c1,"inconclusive: 14.7 µM [inhibitor, partial curve]",–
CCOc1ccc(C(=O)Nc2ccc(N3CCN(C)CC3)cc2)cc1[N+](=O)[O-],–,inactive: 0%
CN(C)C(=O)CSc1nnc(CCCCCNC(=O)OC(C)(C)C)o1,"inconclusive: 4.15 µM [inhibitor, single point]",–
COc1ccc(CNC(=O)CN(C(=O)CCC(=O)Nc2ccccn2)c2cc(C)ccc2C)cc1,"inconclusive: 18.5 µM [inhibitor, single point]",–
CN(c1ccc(O)cc1)S(=O)(=O)c1ccc2ccccc2c1,–,inactive: 83.6%
Cc1cccc(NC(=S)N/N=C/c2cccn2Cc2ccc(F)cc2)c1,"inconclusive: 2.08 µM [inhibitor, partial curve, poor fit]",–

Structure (SMILES),Potency,"activity change, negative = inhibition"
Cc1ccc(S(=O)(=O)CCC(=O)Nc2ccccc2N2CCCC2)cc1,–,inactive: -2.04%
CCN(CC)c1ncnc2c1cnn2Cc1ccc(Cl)cc1,–,inactive: 0%
COc1ccccc1C1=CC(=O)C[C@H](c2ccc(Cl)cc2)C1,"inconclusive: 9.28 µM [inhibitor, single point]",–
COc1ccc(CCNC(=O)c2ccc(-c3ccc([N+](=O)[O-])cc3Cl)o2)cc1,–,inactive: -63.1%
N#Cc1nc(Cc2cccc3ccccc23)oc1NCc1ccc2c(c1)OCO2,active: 14.7 µM,–
CC1=CC(C)(C)N(C(=O)CN2C(=O)c3ccccc3C2=O)c2ccc(C)cc21,"inconclusive: 2.08 µM [inhibitor, full curve, poor fit]",–
COc1cc2c(cc1OC)-c1cc(OCc3ccccc3Cl)nc(=O)n1CC2,"inconclusive: 3.7 µM [inhibitor, full curve]",–
CC(C)N(CCCNC(=O)C1CCN(S(=O)(=O)N2CCOCC2)CC1)Cc1ccccc1,"inconclusive: 8.28 µM [inhibitor, partial curve, poor fit]",–
CN(C(=O)Oc1cccc2cccnc12)c1ccccc1,"inconclusive: 0.0828 µM [inhibitor, full curve, poor fit]",–
CC(=O)OC1C[C@H](O[C@@H]2C(O)C[C@H](O[C@@H]3C(O)C[C@@H](OC4CC[C@]5(C)C(CCC6C5CC(O)[C@@]5(C)C(C7=CC(=O)OC7)CC[C@@]65O)C4)OC3C)OC2C)O[C@H](C)[C@H]1O[C@H]1OC(CO)C(O)C(O)C1O (some centres not stated),active: 4.78 µM,–
CCOC(=O)N1CCN(C(=O)Cn2nc(C)c3sc4ccccc4c3c2=O)CC1,active: 10.4 µM,–
O=C(NCC1COc2ccccc2O1)C1CCC(CNc2c(N3CCCCC3)c(=O)c2=O)CC1 (configuration not stated),"inconclusive: 9.28 µM [inhibitor, partial curve, poor fit]",–
CCCCc1ccc(NC(=O)Nc2cc(C)nn2C)cc1,–,inactive: 1.08%
Cc1cc(-c2ccc(C)c(S(=O)(=O)NCC3CCN(Cc4cccc(F)c4)CC3)c2)on1,"inconclusive: 18.5 µM [inhibitor, single point]",–
O=C(c1ccccc1Cc1ccccc1)N1CCN(S(=O)(=O)c2ccccc2Br)CC1,active: 7.38 µM,–
CCOC(=O)c1c(NC(=O)Cn2ccsc2=N)sc(C)c1C,–,inactive: 1.53%
CSC1=NC(NCCCO)c2c(sc3c2CC(C)(C)OC3)N1 (configuration not stated),active: 9.28 µM,–
Fc1ccc(N/N=C(/c2ccccc2)c2ccccn2)cc1,active: 5.22 µM,–
O=C(O)c1cc(-c2ccc(O)cc2)on1,"inconclusive: 13.1 µM [inhibitor, partial curve, poor fit]",–
CC(C)(C)C(=O)OCOP(=O)(COCCn1cnc2c(N)ncnc21)OCOC(=O)C(C)(C)C,active: 6.75 µM,–
O=C(NC(=O)c1cc(OCC(F)(F)F)ccc1OCC(F)(F)F)Nc1ccccc1,"inconclusive: 11.7 µM [inhibitor, partial curve, poor fit]",–
Cc1oc2c(CN(C)C)c(O)ccc2c(=O)c1-c1ccc2ccccc2n1,"inconclusive: 3.29 µM [inhibitor, partial curve, poor fit]",–
COc1ccc(N(CC(=O)Nc2cc(Cl)ccc2OC)S(=O)(=O)c2c(C)[nH]c(=O)[nH]c2=O)cc1,–,inactive: -0.252%
CCCOc1ccc(C2NC(=O)NC2=O)cc1 (configuration not stated),"inconclusive: 4.15 µM [inhibitor, single point]",–

# Reference: PubChem BioAssay AID504834 (National Center for Advancing Translational Sciences (NCATS), 2011)
